The source of these data is PubChem BioAssay AID662 (National Center for Advancing Translational Sciences (NCATS), 2007).

The other results are listed elsewhere or left out. These are further read-outs of the screen, such as a control signal, another cell line or another target. No call is given for them. Compounds called inactive in the main read-out are mostly missing here. Potencies come from curve fits of mixed quality, noted in brackets.

This assay can be described thus: Cell signaling CRE-BLA (Fsk stim). Conditions: CHO CRE-bla reporter (cAMP response element driving beta-lactamase), forskolin EC10, beta-lactamase ratio; measured here: 460 nm blue channel. The gist of the method:
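Modulation of forskolin-driven signalling is measured in CHO cells carrying a CRE-controlled beta-lactamase reporter. Cells are stimulated with EC10 NKH 477 in the presence of titrated compound for 3 h at 37 °C, then loaded with CCF4 for 2 h at room temperature.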
The AC50 is the midpoint of the concentration-response curve, whichever way the signal moves. For the molecule `Nc1nc2n(n1)C(c1ccco1)CC(c1ccccc1)N2` (stereo not drawn), the AC50 was 6.31 µM [rising, partial curve]. The value for `COc1ccc(Oc2ncc3nc(-c4cccs4)c(=O)n(Cc4cccc(OC)c4)c3n2)cc1` was 7.94 µM [rising, partial curve]; that for `COc1cccc(Nc2ncc3nc(-c4cc(F)cc(F)c4)c(=O)n(C[C@H]4CCCO4)c3n2)c1` was 1.58 µM [rising, full curve]; that for `COc1ccccc1N1CCN(C(=O)c2sc3nc(-c4ccccc4)cn3c2C)CC1` was 10 µM [rising, partial curve].

Turning to `Cc1cccc(-c2nnc3sc(-c4ccccc4)nn23)c1`, the concentration at half-maximal activity (AC50) is 25.1 µM [rising, single point]. Take `CN(CCNC(=O)C1CCN(S(=O)(=O)N2CCOCC2)CC1)CCc1ccccc1`: the concentration at half-maximal activity (AC50) is 1.26 µM [rising, partial curve]. The value for `Cc1cccc(NC(=O)CSc2nnc([C@@H]3CCCN3C(=O)OC(C)(C)C)o2)c1C` was 3.98 µM [falling, single point]; that for `Cc1cc(-c2ccccc2)nc(=O)[nH]1` was 31.6 µM [falling, single point]; that for `COc1ccc(-n2nc(C(=O)Nc3ccc4c(c3)OCO4)c3ccccc3c2=O)c(OC)c1` was 5.01 µM [rising, single point].

For the molecule `Cc1ccc(-c2nnc(SCC(=O)Nc3ccccc3N3CCOCC3)o2)cc1`, the concentration at half-maximal activity (AC50) is 12.6 µM [rising, partial curve]. The value for `O=C(NCC1CCCO1)C1c2ccccc2C(=O)N1C1CCCCCCC1` (stereo not drawn) was 0.398 µM [falling, partial curve]; that for `COc1ccc(CCNc2nc(-c3ccco3)cc(C(F)(F)F)n2)cc1OC` was 5.01 µM [rising, partial curve]. The value for `CC(=O)Oc1ccc(C(=O)Nc2nnc(C)s2)cc1` was 0.316 µM [falling, partial curve]; that for `O=C(Nc1ccccc1C(=O)NCc1ccco1)c1ccccc1` was 31.6 µM [rising, single point].

On to `COC(=O)C(CC(C)C)NC(=O)c1ccc(F)cc1` (stereo not drawn), for which the AC50 is 0.00316 µM [falling, full curve, poor fit]. Consider `CCOCCCNC(=O)c1cn(CC(C)C)c(=O)c2cc(OC)c(OC)cc12`, for which the AC50 was 10 µM [rising, partial curve]. As to `CCN(CC)c1ccc2c(C)c(CN3CCOCC3)c(=O)oc2c1`, the concentration at half-maximal activity (AC50) is 10 µM [rising, partial curve]. The result for `CCN1CCCC1CNC(=O)c1cc2c(-c3ccc(Cl)cc3)nn(C)c2s1` (stereo not drawn) reads 7.94 µM [rising, partial curve]; that for `O=S(=O)(Cc1ccccc1)N1CCC(N2CCN(c3ccccc3)CC2)CC1`, 1 µM [falling, partial curve, poor fit]. The value for `CCOC(=O)CSc1nnc(CNC(=O)c2ccco2)n1-c1ccc(F)cc1` was 25.1 µM [rising, single point]; that for `CC12CCC(C(=O)n3c1nc1ccccc13)C2(C)C` (stereo not drawn) was 1 µM [falling, partial curve]; that for `Cn1c(=O)[nH]c(=O)c2c1nc(NCc1ccco1)n2CCCc1ccccc1` was 25.1 µM [rising, partial curve, poor fit]. The value for `O=C(c1cc(-c2ccco2)on1)N1CCc2ccccc2C1` was 0.00316 µM [falling, full curve, poor fit]. With `CCCNS(=O)(=O)c1ccc(NC(=O)c2ccccn2)cc1`, the AC50 is 12.6 µM [rising, partial curve].

Regarding `COC(=O)c1[nH]c2cccc(OC)c2c1NC(=O)CCN1CCC(C)CC1`, the AC50 is 12.6 µM [falling, partial curve]. The value for `CCOc1ccc(N2CC(C(=O)Nc3ccc(S(=O)(=O)N4CCOCC4)cc3)CC2=O)cc1` (stereo not drawn) was 20 µM [rising, single point]; that for `O=C(O)c1ccccc1C(=O)N1CC=C(c2ccccc2)CC1` was 0.251 µM [falling, partial curve, poor fit]. The result for `CSc1nsc(SC)c1NC(=O)OCc1ccccc1` reads 0.00398 µM [falling, full curve, poor fit]; that for `CCCn1c(C)nc2c(Nc3ccccc3)nc(C)nc21`, 10 µM [rising, partial curve]; that for `O=c1[nH]c(CSc2nnc(-c3ccncc3)n2Cc2ccco2)nc2ccccc12`, 12.6 µM [rising, single point].

`C=CCN1C(=O)/C(=C2/Sc3ccccc3N2C)SC1=Nc1c(C)n[nH]c1C`: the half-maximal activity concentration (AC50) is 1.58 µM [rising, full curve]. The result for `COc1ccccc1CNc1ccnc(-c2ccc(C(=O)N(C)C)cc2)n1` reads 6.31 µM [rising, partial curve]; that for `C=CCn1c(N)c(C(=O)NCC2CCCO2)c2nc3ccccc3nc21` (stereo not drawn), 10 µM [rising, partial curve]. The value for `CCc1ccc(N2CC(C(=O)Nc3cc(C)ccc3F)CC2=O)cc1` (stereo not drawn) was 0.398 µM [rising, partial curve]; that for `NC(=O)CSC1=Nc2ccccc2C2=NC(CCC(=O)NCc3ccc(F)cc3)C(=O)N12` (stereo not drawn) was 0.00316 µM [falling, full curve, poor fit]; that for `CC(=O)N1CCc2cc(S(=O)(=O)CCC(=O)Nc3c(C)n(C)n(-c4ccccc4)c3=O)ccc21` was 0.1 µM [falling, single point].

`O=C(CN1CCN(c2nc(-c3ccc(F)cc3)cs2)CC1)NCc1ccc2c(c1)OCO2`: the concentration at half-maximal activity (AC50) was 0.794 µM [falling, partial curve]. The value for `CCOC(=O)c1cccnc1SCc1cc(=O)n2ccccc2n1` was 7.94 µM [rising, partial curve]; that for `CCCC(C)C(=O)Nc1nnc(C)s1` (stereo not drawn) was 1 µM [rising, partial curve, poor fit]; that for `COc1ccc(CCNC(=O)c2cc(-c3ccccc3O)n[nH]2)cc1OC` was 0.00316 µM [rising, full curve]. As for `O=C(CN1CCOCCOCCN(CC(=O)Nc2ccccc2)CCOCC1)Nc1ccccc1`, the concentration at half-maximal activity (AC50) was 31.6 µM [falling, partial curve]. Consider `CCc1c(C)n2nc(C)cc2[nH]c1=O`, for which the AC50 was 0.1 µM [falling, single point]. The result for `CCOC(=O)Nc1nc(-c2ccccc2)c(C)s1` reads 2.51 µM [falling, single point]; that for `Cc1oc2nc(SCC(=O)NCc3cccnc3)nc(N)c2c1C`, 12.6 µM [rising, partial curve]; that for `c1csc(CNc2ncnc3ccc(-c4ccoc4)cc23)c1`, 0.398 µM [falling, full curve, poor fit]. In the case of `O=C(NCC1CCCO1)C1c2ccccc2C(=O)N1Cc1ccc2c(c1)OCO2` (stereo not drawn), the AC50 is 0.0631 µM [falling, full curve, poor fit].

In the case of `C=CCOc1ccc(/C(CC)=N/O)c(OC)c1`, the AC50 is 10 µM [rising, partial curve]. The value for `C=C(CO)[C@H]1Cc2c(ccc3c2O[C@H]2COc4cc(OC)c(OC)cc4[C@@H]2C3=O)O1` was 20 µM [falling, partial curve, poor fit]; that for `CC(=O)c1ccc2c3c(cccc13)C(=O)N(c1c(C)nn(C)c1C)C2=O` was 15.8 µM [rising, single point]. For `Cc1cccc(OCC(O)Cn2c(-n3nc(C)cc3C)nc3c2c(=O)[nH]c(=O)n3C)c1` (stereo not drawn), the concentration at half-maximal activity (AC50) is 12.6 µM [rising, partial curve].

`CC(Nc1ncnc2nc[nH]c12)c1ccccc1` (stereo not drawn): the AC50 is 10 µM [rising, single point]. The result for `CCc1cc2cc(C(=O)N3CCN(Cc4ccccc4)CC3)sc2s1` reads 25.1 µM [falling, single point].

Turning to `CCC1C(C#N)=C(N)OC2=C1C(=O)CC(C)(C)C2` (stereo not drawn), the concentration at half-maximal activity (AC50) was 0.398 µM [falling, full curve]. The value for `C=CCn1c(=O)[nH]c2cc(C(=O)N3CCN(c4cc(C)ccc4C)CC3)ccc2c1=O` was 0.794 µM [falling, full curve]; that for `Cc1cc(C)n(-c2nnc(C)n2/N=C/c2ccccc2OCc2ccccc2Cl)n1` was 0.631 µM [rising, full curve]. Consider `COc1ccc(NC(=O)CC2Sc3ncnn3C2=O)cc1` (stereo not drawn), for which the concentration at half-maximal activity (AC50) was 10 µM [falling, single point].

With `O=C1c2ccccc2C(Nc2ccccc2F)N1c1cccnc1` (stereo not drawn), the AC50 was 12.6 µM [rising, partial curve]. The value for `O=S(=O)(c1cccc(-c2nc3n(n2)Cc2ccccc2-3)c1)N1CCCC1` was 2.51 µM [rising, full curve]; that for `CCc1c(C)nc(Nc2nc(C)c3cc(OC)ccc3n2)[nH]c1=O` was 0.631 µM [rising, full curve, poor fit]; that for `COC(=O)c1sc(NC(=O)Cc2cccs2)nc1C` was 15.8 µM [rising, single point]. The result for `COc1ccc(Cl)cc1-n1c(C)cc(C(=O)O)c1C` reads 0.1 µM [falling, full curve]. On to `Cc1cccc2cc(COC(=O)C(C)C)c(=O)[nH]c12`, for which the half-maximal activity concentration (AC50) was 5.01 µM [falling, full curve]. `CCCn1cnc2c1c(=O)n(CCCCC(C)=O)c(=O)n2C`: the half-maximal activity concentration (AC50) was 25.1 µM [rising, single point]. The value for `COc1ccc(-n2nnnc2SCC(=O)c2ccc(OC)c(OC)c2)cc1` was 12.6 µM [rising, single point]. The value for `COCCn1c(=N)c(C(=O)NCCc2ccccc2)cc2c(=O)n3cccc(C)c3nc21` was 12.6 µM [rising, partial curve]. For the molecule `O=C(Cn1c(=O)n(Cc2ccco2)c(=O)c2ccccc21)NCC1CCCO1` (stereo not drawn), the AC50 was 0.0794 µM [falling, partial curve].

Consider `O=C(Nc1nc(-c2ccncc2)cs1)C1COc2ccccc2O1` (stereo not drawn), for which the AC50 is 10 µM [rising, partial curve].

Regarding `COc1cc2ccccc2cc1C(=O)Nc1ccc(N2CCN(C)CC2)cc1`, the half-maximal activity concentration (AC50) is 10 µM [rising, single point].
